Data: PubChem BioAssay AID1487 (National Center for Advancing Translational Sciences (NCATS), 2009)
Where “and” joins values, the source holds several entries; their conditions need not be identical. Identical values can stand only once. This is one part of the list. Shown are side measurements of this screen, not its main read-out; they come without a call. Compounds called inactive in the main read-out are mostly missing here. The note in brackets gives the kind of curve behind each potency; many fits are weak.

Assay: qHTS Assay for Modulators of Lamin A Splicing
Conditions: HeLa LMNA splicing GFP/RFP minigene ratio, 48 h
How it was run: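 S3 HeLa stable clones carrying a lamin A-EGFP splicing minigene plus DsRed2 were seeded at 600 cells/well in Opti-MEM with 2% FBS, pin-dosed and incubated 48 h at 37°C. Acumen cytometry (488 nm) gave the GFP/RFP total-intensity ratio.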

[1] = measured here: GFP splicing reporter channel
[2] = measured here: RFP viability control channel

| SMILES | AC50 [1] | AC50 [2] |
| --- | --- | --- |
| Cc1ccc(C(C#N)c2ccc3c(C(F)(F)F)cc(C(F)(F)F)nc3n2)cc1 (stereo unspecified) | 11.2 µM [rising, partial curve] | 22.4 µM [rising, single point] |
| O=C(CC1C(=O)N(Cc2ccccc2)C(=S)N1CCN1CCOCC1)Nc1ccc(F)cc1 (stereo unspecified) | 12.6 µM [rising, partial curve, poor fit] | 11.2 µM [rising, partial curve, poor fit] |
| CC1=NN(c2ccccc2)C(=O)/C1=C\C=C1\N(C)c2ccccc2C1(C)C | 15.8 µM [rising, partial curve] | 20 µM [rising, partial curve] |
| CCn1nc(NC(=O)c2ccncc2)c2cc3cccc(C)c3nc21 | – | 7.94 µM [rising, partial curve, poor fit] |
| O=C(c1ccc(F)cc1)C(C(=O)N1CCCCC1)n1ccccc1=O (stereo unspecified) | 17.8 µM [rising, partial curve] | – |
| CO/N=C/c1ccc(Sc2ccccc2N)c([N+](=O)[O-])c1 | – | 20 µM [rising, single point] |
| Cc1ccc(-c2nn3c(C)nnc3c3ccccc23)cc1S(=O)(=O)NC(C)(C)CO | 20 µM [falling, partial curve] | 14.1 µM [falling, partial curve] |
| CCOc1ccc(N(C)S(=O)(=O)c2cc(-c3cnc(C)o3)ccc2OC)cc1 | 0.0224 µM [rising, full curve, poor fit] | – |
| Cc1cc(C)cc(C(=O)NCC(=O)OCC(=O)NCC(F)(F)F)c1 | – | 28.2 µM [rising, partial curve, poor fit] |
| O=C(Nc1nnc2n1CCS2)c1cc(C(F)(F)F)cc(C(F)(F)F)c1 | – | 3.16 µM [rising, partial curve, poor fit] |
| COc1cc(/C=N/O)c(Br)cc1OCC(=O)Nc1ccccc1C | 20 µM [rising, single point] | 1.41 µM [rising, partial curve] |
| Cc1ccc(C(=O)c2cc([N+](=O)[O-])ccc2N2CCOCC2)c(C)c1 | 1.41 µM [falling, full curve, poor fit] | 1.26 µM [falling, full curve, poor fit] |
| Nc1nc(SCc2ccccc2Cl)[nH]c(=O)c1-c1ccccc1 | – | 8.91 µM [rising, partial curve] |
| CN(C)S(=O)(=O)c1ccc2c(c1)N(CC(=O)N1CCC(C(N)=O)CC1)CCS2 | – | 35.5 µM [falling, partial curve, poor fit] |
| CCOc1ccc(C(=O)Nc2ccc(N3CCN(C)CC3)cc2)cc1[N+](=O)[O-] | 0.00316 µM [falling, full curve, poor fit] | – |
| CCCCOc1ccc(-c2nnn(CCC(=O)N3CCOCC3)n2)cc1 | – | 20 µM [rising, single point] |
| c1ccc(CNc2ncncc2-c2ccc3c(c2)OCO3)cc1 | 20 µM [falling, single point] | 35.5 µM [falling, single point] |
| CCOc1ccc(NC(=O)c2cc(S(=O)(=O)N3CCC(C)CC3)cn2C)cc1 | 6.31 µM [falling, partial curve, poor fit] | 11.2 µM [falling, partial curve] |
| N#Cc1nc(Cc2cccc3ccccc23)oc1NCc1ccc2c(c1)OCO2 | – | 35.5 µM [rising, single point] |
| Cc1ccc(NC(=S)N2CCN(C(=O)c3ccccc3)CC2)c(C)c1 | – | 7.08 µM [falling, partial curve, poor fit] |
| O=C(COc1ccccc1F)NCc1nc2ccccc2[nH]1 | – | 0.631 µM [rising, partial curve, poor fit] |
| Cc1ccc(C2=NN(CCC(=O)NCCC(C)C)C(=O)CC2)cc1 | – | 0.0158 µM [rising, full curve, poor fit] |
| O=C(c1ccncc1)N1CCN(C2CCCCC2)CC1 | 20 µM [rising, single point] | – |
| CCOC(=O)N1CCN(C(=O)Cn2nc(C)c3sc4ccccc4c3c2=O)CC1 | 2 µM [rising, partial curve] | – |
| CCOC(=O)c1c(NC(=O)Cn2ccsc2=N)sc(C)c1C | – | 1 µM [falling, full curve, poor fit] |
| COc1ccc(S(=O)(=O)N2CCOC2CNC(=O)C(=O)NCCc2ccc(OC)c(OC)c2)cc1 (stereo unspecified) | 11.2 µM [rising, partial curve, poor fit] | 17.8 µM [rising, partial curve] |
| CSc1nc(NCc2ccco2)c2ccccc2n1 | – | 20 µM [falling, partial curve, poor fit] |

| SMILES | AC50 [1] | AC50 [2] |
| --- | --- | --- |
| CC(C)COc1ccc(-c2nnn(CC(=O)N3CCCC3)n2)cc1 | – | 31.6 µM [rising, single point] |
| C=CCNC(=S)Nc1ccc2nc(C)oc2c1 | 35.5 µM [rising, single point] | – |
| CCOC(=O)c1c(C)[nH]c(C(=O)OCc2c(C)noc2C)c1C | – | 14.1 µM [rising, single point] |
| COc1ccc(Nc2cc(C)nc(-n3nc(C)cc3C)n2)cc1 | – | 0.398 µM [rising, full curve] |
| COc1ccccc1N1CCN(CC(O)COc2cccc3ccccc23)CC1 (stereo unspecified) | 35.5 µM [falling, single point] and 4.47 nM [falling, full curve, poor fit] and 3.98 µM [rising, partial curve] | 891 nM [falling, single point] and 4.47 nM [falling, full curve, poor fit] and 12.6 µM [rising, partial curve] |
| O=C(COc1ccc(/C=N/NS(=O)(=O)c2ccccc2)cc1)Nc1cccc(Cl)c1 | – | 22.4 µM [rising, single point] |
| CCOc1ccc(CC(=O)NCc2ccc3c(c2)CCN3C(=O)c2ccc(F)cc2)cc1OCC | – | 12.6 µM [falling, single point] |
| Cc1noc(C)c1-c1nc(Nc2ccc(F)cc2)c2ccccc2n1 | 15.8 µM [falling, partial curve] | 15.8 µM [falling, partial curve] |
| CC(C)Oc1cccc(C(=O)C2CCCN(Cc3cnc(N4CCCC4)s3)C2)c1 (stereo unspecified) | 0.01 µM [falling, partial curve, poor fit] | 0.01 µM [falling, full curve, poor fit] |
| COc1ccc(NC(=S)N2CCN(CCN3C(=O)c4cccc5cccc(c45)C3=O)CC2)cc1 | – | 35.5 µM [falling, single point] |
| CCOc1ccc(C2c3[nH]c4ccccc4c3CCN2C(=O)CCC2CCCC2)cc1 (stereo unspecified) | 3.98 µM [falling, full curve, poor fit] | – |
| CCN(CCCNC(=O)CN1N=C(c2ccc(C)cc2)CCC1=O)c1ccccc1 | 11.2 µM [falling, partial curve, poor fit] | – |
| CCCn1nnnc1NC(=O)c1ccc2ccccc2c1 | – | 8.91 µM [rising, partial curve] |
| Cc1ccn2c(=O)c(NC(=O)c3cccc([N+](=O)[O-])c3C)c(C)nc2c1 | 35.5 µM [rising, single point] | 35.5 µM [rising, single point] |
| CC(C)(C)C(=O)Nc1nnc(CSCc2ccccc2F)s1 | – | 35.5 µM [rising, single point] |
| O=C(c1cc(N2C(=O)C3C4CCC(C4)C3C2=O)ccc1Cl)N1CCN(c2ccc(F)cc2)CC1 (stereo unspecified) | 35.5 µM [rising, single point] | 35.5 µM [rising, single point] |
| CN1CCC(=C2c3ccccc3CC(=O)c3sccc32)CC1 | 2 µM [falling, single point] and 35.5 µM [falling, single point] | 3.16 µM [falling, single point] and 2 nM [falling, full curve, poor fit] and 35.5 µM [rising, single point] |
| COC(=O)COc1ccc(S(=O)(=O)Nc2ccc3c(c2)OCO3)cc1Cl | – | 17.8 µM [rising, single point] |
| CCCN1CCN(C(=S)Nc2ccccc2C(F)(F)F)CC1 | – | 17.8 µM [rising, partial curve, poor fit] |
| COc1ccccc1NC(=O)Cc1nc(CCl)cs1 | – | 11.2 µM [rising, single point] |
| CC(=O)N(Cc1ccc(Br)cc1)c1cccc(C)c1C | – | 22.4 µM [rising, single point] |
| CC(=O)Nc1ccc(N(C(=O)CNC(=O)c2cccs2)C(C(=O)NC(C)(C)C)c2ccccc2)cc1 (stereo unspecified) | – | 0.1 µM [falling, full curve] |
| Nc1nc2ccccc2n1C(=O)CCc1ccccc1 | – | 2.24 µM [rising, full curve] |
| O=C(CCC(=O)NCCCc1ccccc1)NCCCc1ccccc1 | 0.00501 µM [falling, full curve, poor fit] | – |
| COC(=O)c1cn(NC(=O)c2ccc([N+](=O)[O-])c(C)c2)c(=O)c2ccccc12 | 35.5 µM [falling, partial curve, poor fit] | – |
| COc1cccc(-c2cncnc2NCCN2CCOCC2)c1 | 25.1 µM [falling, single point] | 17.8 µM [falling, single point] |
| O=C(Cc1ccc(F)cc1)NCCc1csc2nc(-c3ccc(Cl)cc3)nn12 | 0.398 µM [rising, full curve] | 0.447 µM [rising, full curve, poor fit] |
